We go through 1 molecule from article PMC10854748.

No constants are given. Whether binding was seen depends on the method and setting. In cells and extracts the contact can be indirect. These calls come from enrichment with a bait or labelling near it, and not all partners need be listed. Where a sequence is shown, tags or fusion partners need not be part of it.

The target in the assay is N-terminally FLAG-HA epitope-tagged human HIRIP3 (e-HIRIP3) (human) (UniProt Q9BW71). Nature of the assay: affinity purification with mass spectrometry; tandem anti-FLAG then anti-HA immunoaffinity purification of e-HIRIP3 from HeLa cytosolic, soluble nuclear and MNase-solubilised chromatin extracts; washes in TGEN-150 (20 mM Tris-HCl pH 7.65, 150 mM NaCl); silver staining and Orbitrap mass spectrometry.

B1: AMP deaminase (AMPD2) (enzyme, UniProt Q01433 1-825)
chain: MASYPSGSGKPKAKYPFKKRASLQASTAAPEARGGLGAPPLQSARSLPGPAPCLKHFPLDLRTSMDGKCKEIAEELFTRSLAESELRSAPYEFPEESPIEQLEERRQRLERQISQDVKLEPDILLRAKQDFLKTDSDSDLQLYKEQGEGQGDRSLRERDVLEREFQRVTISGEEKCGVPFTDLLDAAKSVVRALFIREKYMALSLQSFCPTTRRYLQQLAEKPLETRTYEQGPDTPVSADAPVHPPALEQHPYEHCEPSTMPGDLGLGLRMVRGVVHVYTRREPDEHCSEVELPYPDLQEFVADVNVLMALIINGPIKSFCYRRLQYLSSKFQMHVLLNEMKELAAQKKVPHRDFYNIRKVDTHIHASSCMNQKHLLRFIKRAMKRHLEEIVHVEQGREQTLREVFESMNLTAYDLSVDTLDVHADRNTFHRFDKFNAKYNPIGESVLREIFIKTDNRVSGKYFAHIIKEVMSDLEESKYQNAELRLSIYGRSRDEWDKLARWAVMHRVHSPNVRWLVQVPRLFDVYRTKGQLANFQEMLENIFLPLFEATVHPASHPELHLFLEHVDGFDSVDDESKPENHVFNLESPLPEAWVEEDNPPYAYYLYYTFANMAMLNHLRRQRGFHTFVLRPHCGEAGPIHHLVSAFMLAENISHGLLLRKAPVLQYLYYLAQIGIAMSPLSNNSLFLSYHRNPLPEYLSRGLMVSLSTDDPLQFHFTKEPLMEEYSIATQVWKLSSCDMCELARNSVLMSGFSHKVKSHWLGPNYTKEGPEGNDIRRTNVPDIRVGYRYETLCQELALITQAVQSEMLETIPEEAGITMSPGPQ
Regarding B1, the binding entry is recorded as “binds”.
